Data as given in paper PMC4896102, “Biosynthesis of the polymeric gel-forming mucin MUC5B” (American Journal of Physiology - Lung Cellular and …, 2016).
These are yes or no findings as the source states them, for the method shown. Some results given as binding are weak or reduced against the parent protein; the word gives no strength.

Sequences of proteins named here, by UniProt entry; tags and fusion partners are left off. Residues count along the entry.
UniProt Q9HC84, residues 26-5762: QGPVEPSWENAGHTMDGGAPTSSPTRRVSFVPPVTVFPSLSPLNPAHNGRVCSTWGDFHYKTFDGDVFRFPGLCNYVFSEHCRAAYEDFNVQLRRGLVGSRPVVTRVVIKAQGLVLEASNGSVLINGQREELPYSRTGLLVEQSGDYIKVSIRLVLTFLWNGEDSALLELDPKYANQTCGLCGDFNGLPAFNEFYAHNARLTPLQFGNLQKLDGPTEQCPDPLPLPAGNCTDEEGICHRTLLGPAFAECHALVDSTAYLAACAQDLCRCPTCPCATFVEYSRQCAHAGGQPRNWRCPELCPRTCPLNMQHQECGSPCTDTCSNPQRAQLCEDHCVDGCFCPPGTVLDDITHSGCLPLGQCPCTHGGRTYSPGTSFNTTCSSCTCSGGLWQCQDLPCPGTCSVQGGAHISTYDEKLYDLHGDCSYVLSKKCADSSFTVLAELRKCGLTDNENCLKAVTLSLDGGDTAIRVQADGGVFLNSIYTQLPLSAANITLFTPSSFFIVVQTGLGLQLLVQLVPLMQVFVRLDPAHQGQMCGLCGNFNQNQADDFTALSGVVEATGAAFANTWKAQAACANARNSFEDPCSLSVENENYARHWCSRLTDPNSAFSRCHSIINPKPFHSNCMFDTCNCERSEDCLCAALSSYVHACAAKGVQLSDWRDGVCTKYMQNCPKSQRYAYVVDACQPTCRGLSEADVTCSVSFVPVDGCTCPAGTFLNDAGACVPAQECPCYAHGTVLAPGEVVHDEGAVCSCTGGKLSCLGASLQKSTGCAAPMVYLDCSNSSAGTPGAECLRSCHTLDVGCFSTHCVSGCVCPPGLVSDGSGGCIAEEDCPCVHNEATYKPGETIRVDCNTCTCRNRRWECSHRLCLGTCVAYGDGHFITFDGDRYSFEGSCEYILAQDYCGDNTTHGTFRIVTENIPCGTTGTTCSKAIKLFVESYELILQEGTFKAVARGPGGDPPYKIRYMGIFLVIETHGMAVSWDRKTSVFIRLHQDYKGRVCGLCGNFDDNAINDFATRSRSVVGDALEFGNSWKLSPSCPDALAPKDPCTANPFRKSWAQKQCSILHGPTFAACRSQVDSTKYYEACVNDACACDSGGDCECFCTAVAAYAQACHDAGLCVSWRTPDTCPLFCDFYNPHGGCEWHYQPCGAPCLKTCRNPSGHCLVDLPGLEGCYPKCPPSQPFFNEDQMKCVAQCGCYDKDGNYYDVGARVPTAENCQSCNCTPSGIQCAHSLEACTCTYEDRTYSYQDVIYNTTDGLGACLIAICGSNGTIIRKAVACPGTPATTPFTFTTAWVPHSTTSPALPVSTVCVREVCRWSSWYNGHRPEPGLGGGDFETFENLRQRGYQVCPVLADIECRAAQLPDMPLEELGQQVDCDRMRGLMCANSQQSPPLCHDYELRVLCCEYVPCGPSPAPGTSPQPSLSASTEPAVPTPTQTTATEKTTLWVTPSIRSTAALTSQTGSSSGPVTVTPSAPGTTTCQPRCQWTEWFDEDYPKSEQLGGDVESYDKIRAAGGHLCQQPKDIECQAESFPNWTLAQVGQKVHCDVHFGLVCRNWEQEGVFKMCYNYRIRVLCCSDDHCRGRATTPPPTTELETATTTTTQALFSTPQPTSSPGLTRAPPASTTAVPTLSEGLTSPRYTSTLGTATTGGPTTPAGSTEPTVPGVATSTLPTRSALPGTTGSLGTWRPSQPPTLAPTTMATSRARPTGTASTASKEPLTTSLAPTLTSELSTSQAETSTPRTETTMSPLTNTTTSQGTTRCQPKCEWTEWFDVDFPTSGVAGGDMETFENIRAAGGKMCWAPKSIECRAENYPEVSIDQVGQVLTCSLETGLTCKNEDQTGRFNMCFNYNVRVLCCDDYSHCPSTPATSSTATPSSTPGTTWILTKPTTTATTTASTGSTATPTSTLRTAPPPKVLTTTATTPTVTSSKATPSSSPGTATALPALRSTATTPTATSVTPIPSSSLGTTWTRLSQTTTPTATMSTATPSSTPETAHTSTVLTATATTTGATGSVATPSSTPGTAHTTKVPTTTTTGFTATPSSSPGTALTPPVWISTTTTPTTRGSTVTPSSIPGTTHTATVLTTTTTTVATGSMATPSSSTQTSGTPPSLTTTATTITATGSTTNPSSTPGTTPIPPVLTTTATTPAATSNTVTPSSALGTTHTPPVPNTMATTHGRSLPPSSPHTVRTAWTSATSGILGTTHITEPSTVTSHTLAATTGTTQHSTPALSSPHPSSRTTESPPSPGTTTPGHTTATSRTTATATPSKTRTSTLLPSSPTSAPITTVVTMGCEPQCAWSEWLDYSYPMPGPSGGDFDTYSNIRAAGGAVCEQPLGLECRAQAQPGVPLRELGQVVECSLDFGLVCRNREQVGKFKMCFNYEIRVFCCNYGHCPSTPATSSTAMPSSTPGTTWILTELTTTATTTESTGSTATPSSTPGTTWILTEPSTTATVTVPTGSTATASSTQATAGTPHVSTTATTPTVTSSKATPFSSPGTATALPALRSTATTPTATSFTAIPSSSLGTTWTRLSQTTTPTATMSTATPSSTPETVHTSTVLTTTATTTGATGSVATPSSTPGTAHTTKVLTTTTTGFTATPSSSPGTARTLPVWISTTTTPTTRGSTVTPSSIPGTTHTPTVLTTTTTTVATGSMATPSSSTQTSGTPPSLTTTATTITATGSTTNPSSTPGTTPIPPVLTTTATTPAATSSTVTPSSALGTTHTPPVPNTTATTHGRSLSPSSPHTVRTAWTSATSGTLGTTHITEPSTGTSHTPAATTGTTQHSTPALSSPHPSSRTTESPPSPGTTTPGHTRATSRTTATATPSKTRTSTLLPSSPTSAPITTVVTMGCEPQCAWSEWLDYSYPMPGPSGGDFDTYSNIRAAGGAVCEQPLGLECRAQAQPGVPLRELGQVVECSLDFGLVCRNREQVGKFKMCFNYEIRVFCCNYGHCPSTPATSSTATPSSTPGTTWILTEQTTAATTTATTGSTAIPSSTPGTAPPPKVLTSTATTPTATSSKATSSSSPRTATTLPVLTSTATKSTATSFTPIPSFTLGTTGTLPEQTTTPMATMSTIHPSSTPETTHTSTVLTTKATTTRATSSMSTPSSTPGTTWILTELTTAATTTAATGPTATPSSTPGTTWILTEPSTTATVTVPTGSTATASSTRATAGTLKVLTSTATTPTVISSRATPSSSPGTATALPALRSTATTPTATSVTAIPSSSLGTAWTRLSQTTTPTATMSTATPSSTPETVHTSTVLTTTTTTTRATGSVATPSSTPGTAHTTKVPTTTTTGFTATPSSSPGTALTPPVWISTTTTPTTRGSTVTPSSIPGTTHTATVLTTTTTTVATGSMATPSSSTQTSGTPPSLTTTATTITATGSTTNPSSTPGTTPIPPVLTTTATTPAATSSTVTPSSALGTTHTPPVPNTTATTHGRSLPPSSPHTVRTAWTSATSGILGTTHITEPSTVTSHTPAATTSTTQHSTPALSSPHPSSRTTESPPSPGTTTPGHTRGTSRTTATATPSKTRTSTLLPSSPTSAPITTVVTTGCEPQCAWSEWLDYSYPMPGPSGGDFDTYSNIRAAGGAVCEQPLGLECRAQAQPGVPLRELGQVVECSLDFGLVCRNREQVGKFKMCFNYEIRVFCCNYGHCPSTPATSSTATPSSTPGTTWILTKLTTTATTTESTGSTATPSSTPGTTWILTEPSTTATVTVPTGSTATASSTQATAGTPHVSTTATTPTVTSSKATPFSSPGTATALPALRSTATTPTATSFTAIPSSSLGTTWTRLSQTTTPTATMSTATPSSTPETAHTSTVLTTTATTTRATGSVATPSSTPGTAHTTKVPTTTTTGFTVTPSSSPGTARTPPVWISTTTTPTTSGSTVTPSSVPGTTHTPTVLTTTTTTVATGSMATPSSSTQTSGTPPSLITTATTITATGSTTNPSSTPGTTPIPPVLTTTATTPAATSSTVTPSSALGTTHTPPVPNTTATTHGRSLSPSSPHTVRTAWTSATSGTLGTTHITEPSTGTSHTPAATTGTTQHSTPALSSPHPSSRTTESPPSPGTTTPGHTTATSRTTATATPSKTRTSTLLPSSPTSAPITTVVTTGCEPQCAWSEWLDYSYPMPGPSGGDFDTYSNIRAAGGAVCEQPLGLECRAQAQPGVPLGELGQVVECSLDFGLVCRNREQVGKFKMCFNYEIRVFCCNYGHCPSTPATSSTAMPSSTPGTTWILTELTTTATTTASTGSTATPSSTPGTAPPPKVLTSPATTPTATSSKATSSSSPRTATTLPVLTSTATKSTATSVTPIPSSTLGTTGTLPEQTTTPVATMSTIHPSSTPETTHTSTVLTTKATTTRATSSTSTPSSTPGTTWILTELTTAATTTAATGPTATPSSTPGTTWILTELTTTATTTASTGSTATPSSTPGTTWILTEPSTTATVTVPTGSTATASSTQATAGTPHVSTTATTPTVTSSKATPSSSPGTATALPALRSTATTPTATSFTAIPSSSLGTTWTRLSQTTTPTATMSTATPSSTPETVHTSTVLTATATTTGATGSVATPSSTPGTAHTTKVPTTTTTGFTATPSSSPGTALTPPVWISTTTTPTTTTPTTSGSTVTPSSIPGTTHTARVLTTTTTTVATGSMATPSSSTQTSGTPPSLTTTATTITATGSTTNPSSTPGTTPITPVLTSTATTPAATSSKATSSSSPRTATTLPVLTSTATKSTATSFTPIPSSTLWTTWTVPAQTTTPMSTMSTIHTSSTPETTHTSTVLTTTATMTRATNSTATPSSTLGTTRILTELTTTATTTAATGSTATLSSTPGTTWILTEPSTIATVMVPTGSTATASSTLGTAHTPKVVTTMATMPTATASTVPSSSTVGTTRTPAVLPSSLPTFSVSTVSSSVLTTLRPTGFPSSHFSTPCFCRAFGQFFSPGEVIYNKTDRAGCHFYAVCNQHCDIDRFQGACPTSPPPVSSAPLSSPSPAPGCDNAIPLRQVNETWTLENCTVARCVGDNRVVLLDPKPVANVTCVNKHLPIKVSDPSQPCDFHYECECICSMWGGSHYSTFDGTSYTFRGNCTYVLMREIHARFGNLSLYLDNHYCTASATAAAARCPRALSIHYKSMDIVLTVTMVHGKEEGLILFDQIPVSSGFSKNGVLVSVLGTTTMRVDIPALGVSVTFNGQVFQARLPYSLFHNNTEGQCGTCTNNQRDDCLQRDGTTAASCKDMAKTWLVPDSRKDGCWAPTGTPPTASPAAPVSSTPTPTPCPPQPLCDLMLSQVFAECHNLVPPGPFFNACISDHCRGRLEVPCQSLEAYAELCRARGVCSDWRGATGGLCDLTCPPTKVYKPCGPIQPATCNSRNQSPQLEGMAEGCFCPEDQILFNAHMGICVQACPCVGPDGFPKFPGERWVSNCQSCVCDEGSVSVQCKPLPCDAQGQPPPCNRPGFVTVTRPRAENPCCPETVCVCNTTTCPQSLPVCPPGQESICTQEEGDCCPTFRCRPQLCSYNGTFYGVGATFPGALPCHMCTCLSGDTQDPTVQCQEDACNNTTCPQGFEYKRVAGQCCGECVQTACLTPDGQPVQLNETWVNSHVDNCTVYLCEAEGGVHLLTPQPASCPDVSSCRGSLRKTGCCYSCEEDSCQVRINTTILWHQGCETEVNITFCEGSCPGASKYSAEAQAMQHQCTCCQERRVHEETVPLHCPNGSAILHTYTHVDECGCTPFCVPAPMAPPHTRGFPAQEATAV

What was measured:
[1] = molecular target: O-glycosylated polymeric MUC5B (human (endogenous in primary human bronchial epithelial cells)) (UniProt Q9HC84); assay: agarose gel electrophoresis, unreduced versus reduced, with Western blot; HBEC lysates in 6 M GdmCl, unreduced or reduced with 10 mM DTT, 0.7% agarose with 0.1% SDS, blots probed with LUM5B-13 or MAN-5BI
[2] = molecular target: non-O-glycosylated MUC5B (native polypeptide monomer and dimer) (human (endogenous in primary human bronchial epithelial cells)) (UniProt Q9HC84); assay: pulse-chase, immunoprecipitation and agarose gel electrophoresis; HBECs pulse labeled 15 min with [35S]methionine, chased 0-120 min; lysates immunoprecipitated with LUM5B-13, agarose gel electrophoresis, phosphoimaging
[3] = molecular target: non-O-glycosylated MUC5B (native polypeptide monomer and dimer) (human (endogenous in primary human bronchial epithelial cells)) (UniProt Q9HC84); assay: agarose gel electrophoresis, unreduced versus reduced, with Western blot; HBEC lysates in 6 M GdmCl, unreduced or reduced with 10 mM DTT, 0.7% agarose with 0.1% SDS, blots probed with LUM5B-13 or MAN-5BI

## O-glycosylated polymeric MUC5B (from UniProt Q9HC84 26-5762)
[1]
  binding: binds

## non-O-glycosylated MUC5B (native polypeptide monomer and dimer) (from UniProt Q9HC84 26-5762)
[2]
  binding: binds
[3]
  binding: binds
